Measurements from paper PMC7948479, “Allostery in the nitric oxide dioxygenase mechanism of flavohemoglobin” (The Journal of Biological Chemistry, 2020).
Read-outs that look alike come from different tables or passages of the source.

Test system: flavoHb heme (Fe^2+ / Fe^3+)
Protocol: FAD and heme reduction were monitored by following the changes in flavoHb absorbance at 460 and 430 nm, respectively, with stopped-flow rapid mixing of 50 μM NADH and 10 μM flavoHb in N2-purged buffer ([4]). O2, NO, and CO association rate constants were determined by photolyzing 50 μM of the respective ferrous flavoHb species with a 300-ns pulse from a 577-nm laser and by spectrophotometrically following ligand reassociation in O2-, NO-, or CO-saturated buffer unless otherwise indicated ([4], [5]). […] Binding of NO was measured by the change of absorbance at 422 nm by applying a difference extinction coefficient of 0.040 μM^−1 cm^−1. O2 and CO dissociation rate constants were determined by stopped-flow rapid mixing with either CO or NO displacement ([4], [5]). The cuvette path length was 1.0 cm. All reactions were at 20 °C in filtered 100 mM sodium phosphate buffer, pH 7.0, containing 0.3 mM EDTA. Catalase (1000 U/ml) was included in all reactions containing O2 to scavenge H2O2 produced by the NADH oxidase activity of flavoHb and to regenerate O2.

[1] = Fe2+ CO, 100 µM CO in the presence of 0.6 mM N2
[2] = Fe2+ O2, 100 µM CO in the presence of 1 mM O2

B1: WT: wild-type E. coli flavohemoglobin (flavoHb), an NO dioxygenase (NOD) (protein, UniProt P24232 1-396, looked up)
Flavohemoprotein: MLDAQTIATVKATIPLLVETGPKLTAHFYDRMFTHNPELKEIFNMSNQRNGDQREALFNAIAAYASNIENLPALLPAVEKIAQKHTSFQIKPEQYNIVGEHLLATLDEMFSPGQEVLDAWGKAYGVLANVFINREAEIYNENASKAGGWEGTRDFRIVAKTPRSALITSFELEPVDGGAVAEYRPGQYLGVWLKPEGFPHQEIRQYSLTRKPDGKGYRIAVKREEGGQVSNWLHNHANVGDVVKLVAPAGDFFMAVADDTPVTLISAGVGQTPMLAMLDTLAKAGHTAQVNWFHAAENGDVHAFADEVKELGQSLPRFTAHTWYRQPSEADRAKGQFDSEGLMDLSKLEGAFSDPTMQFYLCGPVGFMQFTAKQLVDLGVKQENIHYECFGPHKVL
In the case of B1, the “fraction of fast phase” value [1] is reported as 56%, the “fraction of slow phase” value [1] is reported as 44% and the Φdis [1] is reported as 15%. The “fraction of fast phase” value [2] was 64%, the “fraction of slow phase” value [2] was 36% and the Φdis [2] was 4%. For the same molecule, the “fraction of fast phase” value (Fe^2+ CO, 20 °C) was 72%, the “fraction of slow phase” value (Fe^2+ CO, 20 °C) was 28% and the Φdis (Fe^2+ CO, 20 °C) was 13%. The “fraction of fast phase” value (Fe^2+ NO, 20 °C) was 57%, the “fraction of slow phase” value (Fe^2+ NO, 20 °C) was 43% and the Φdis (Fe^2+ NO, 20 °C) was 4.4%. The “fraction of fast phase” value (Fe^2+ O2, 20 °C) was 90%, the “fraction of slow phase” value (Fe^2+ O2, 20 °C) was 10% and the Φdis (Fe^2+ O2, 20 °C) was 1.6%. For the same molecule, the “fraction of fast phase” value (Fe^3+ NO, 20 °C) was 57%, the “fraction of slow phase” value (Fe^3+ NO, 20 °C) was 43% and the Φdis (Fe^3+ NO, 20 °C) was 22%.
